## Results of single-concentration screens

Amino acid sequences for entries named in this document (tags omitted).
UniProt P9WFT3, whole entry: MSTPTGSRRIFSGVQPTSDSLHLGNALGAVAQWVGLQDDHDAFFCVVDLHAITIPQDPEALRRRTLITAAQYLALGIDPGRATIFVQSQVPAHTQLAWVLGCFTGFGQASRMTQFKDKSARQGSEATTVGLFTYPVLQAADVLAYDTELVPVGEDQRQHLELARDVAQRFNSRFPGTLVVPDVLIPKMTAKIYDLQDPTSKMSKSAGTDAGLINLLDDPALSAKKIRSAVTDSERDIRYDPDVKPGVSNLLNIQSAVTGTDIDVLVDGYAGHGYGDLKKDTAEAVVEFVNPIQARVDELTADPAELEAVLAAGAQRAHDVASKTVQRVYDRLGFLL
UniProt P9WNZ1, whole entry: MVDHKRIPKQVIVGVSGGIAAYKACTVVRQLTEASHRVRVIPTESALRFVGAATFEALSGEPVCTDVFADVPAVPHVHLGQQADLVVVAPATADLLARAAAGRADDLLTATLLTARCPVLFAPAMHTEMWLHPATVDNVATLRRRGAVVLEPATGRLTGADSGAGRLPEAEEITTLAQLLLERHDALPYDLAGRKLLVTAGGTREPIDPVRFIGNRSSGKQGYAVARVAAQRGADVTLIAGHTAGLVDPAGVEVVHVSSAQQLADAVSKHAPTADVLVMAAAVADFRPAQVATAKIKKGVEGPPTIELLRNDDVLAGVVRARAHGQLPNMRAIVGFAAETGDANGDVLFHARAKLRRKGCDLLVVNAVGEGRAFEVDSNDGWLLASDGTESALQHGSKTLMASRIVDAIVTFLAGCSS

A: 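Cell assay of Leishmania donovani living inside macrophages; the read-out is not stated. Tested at 30 µM. The record gives no direction; compounds that gave an IC50 in retests scored well above the rest, so higher reads as stronger inhibition. Size under these conditions: about 69,000 compounds, about 1,000 of them at 50% or above in at least one test.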
B: 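Tryptophan-tRNA ligase, Mycobacterium tuberculosis (UniProt P9WFT3). Enzyme assay of tryptophanyl-tRNA synthetase; the read-out is not stated. Tested at 10 µM. Direction is not recorded; retested compounds ran higher, which suggests that high means inhibition. Of about 65,000 compounds tested this way, about 64 (0.098%) reached 50% or more in at least one test.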
C: 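Assay of Toxoplasma gondii numbers, read through their beta-galactosidase reporter with a colour substrate. Concentration: 10 µM. Higher reads as fewer parasites (inferred from which compounds were picked for retests). Size under these conditions: about 67,000 compounds, about 260 of them at 50% or above in at least one test.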
D: 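Coenzyme A biosynthesis protein CoaBC, Mycobacterium tuberculosis (UniProt P9WNZ1). Enzyme assay of CoaBC with a phosphate dye (Biomol Green) read at 650 nm. Compounds at 30 µM. Higher reads as stronger inhibition, judged from the few compounds that gave an IC50. Most strong results did not repeat in a second test. Of about 67,000 compounds tested this way, about 40 (0.06%) reached 50% or more in at least one test.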

Values are the deposited “Percent Effect”, in %.
The record does not define 0% and 100%; most values in the screen are far below 50% and negative numbers occur (in some assays of this library far below -100).
Compounds were drawn at random from those tested, without regard to their results.
Two or more numbers in one place are separate tests of the same structure; such repeats can differ widely.
A dash means the value is not listed here; it may have been measured.

structure | A | B | C | D
O=c1c2cccc(C(F)(F)F)c2ncn1CCN1CCNCC1 | -4.673 | 3.44 | -6.525 | -41.65
Cc1cc2cc(NC(=O)Cn3ncc(N4CCCC4)cc3=O)ccc2o1 | 21.51 | -0.4504 | 0.7396 | -3.576
Cc1ccc(C)c(Sc2nccn(C)c2=O)c1 | -1.035 | -5.888 | 4.545 | 8.171
[H][C@]12CCCCN1CCC[C@H]2CCc1nc(C(C)C)no1 | 43.05 | - | 2.709 | -
COc1ccnc(CN(C)C(=O)CSc2nnc(N)s2)c1 | 23.55 | -1.469 | -5.42 | 2.056
Cc1ccc(CN2CCc3[nH]nc(C(=O)N(C)C)c3C2)o1.O=C(O)C(F)(F)F | 19.51 | - | -0.4757 | -
O=C(NCCc1ccccc1)NCC(O)c1cccc(F)c1 (centres unmarked) | -2.282 | -0.8045 | -25.33 | -2.857
CCCN(Cc1nccn1C)C(=O)c1cc(C(C)C)on1 | -13.69 | -4.052 | -14.68 | 1.863
CCC(N)C(=O)N1CCC(OCc2ccc(Cl)c(Cl)c2)CC1.Cl (centres unmarked) | 81.5 | - | 18.9 | -
Cc1ccc(-c2noc([C@@H]3Cc4nc[nH]c4CN3)n2)cc1 | -86.1 | -7.003 | -0.07722 | 10.61
Cc1noc(C)c1C(=O)N1CCCN(C)c2ccc(Cl)cc21 | 17.59 | 5.04 | -5.467 | 5.097
Cn1cc(CN2C[C@@H](N3CCCC3=O)[C@H]3OCCC[C@H]32)cn1 | - | 1.762 | - | 0.6342
COc1ccc(C2SC(C)=Nc3c2c(=O)[nH]n3C2CCCC2)cc1O (centres unmarked) | 5.434 | -0.6221 | 20.08 | 0.1211
CCc1ccc(CNc2ccccc2CN2CCC(O)CC2)o1 | 7.535 | -0.9288 | 16.99 | -
Cc1ccc(CCCC(=O)N(C)CCN2CCOCC2)cc1 | -71.5 | 5.771 | 2.918 | 20.84 and 3.175
O=c1[nH]c(COc2ccc(Cl)cc2)nc2c1CCNC2 | -4.839 | 19.2 | -8.046 | -5.511
c1snnc1CN1C[C@H]2CCC[C@@H](CN3CCOCC3)[C@H]2C1 | - | 1.954 | - | 0.9346
O=C(O)C1CN(Cc2cccc(-c3ccccn3)c2)CCO1 (centres unmarked) | 6.565 | 0.9646 | - | 1.58
CC(NCc1cc(F)ccc1F)c1ccc(OCC(=O)NC2CC2)cc1 (centres unmarked) | 30.49 | -3.067 | -22.59 | 0.6361
COc1ccc(NC(=O)CSc2nncn2-n2cccc2)c(OC)c1 | 7.935 | -4.019 | - | -0.3645
NC(=O)C1(c2cnccn2)CCCN1C(=O)Cc1ccsc1 (centres unmarked) | 15.96 | -11.47 | -7.387 | -3.942
CCN(Cc1nonc1C)C(=O)Cn1nc(C(F)(F)F)cc1C1CC1 | -31.98 | 3.109 | 53.8 | 1.617
Cc1ccc(-c2nnc(CCC(=O)NCc3cn(C)nc3C)o2)s1 | 5.764 | -0.892 | -11.22 | 1.629
CCOCC1CN(C(=O)c2cccn2C)Cc2cnn(CC3CC3)c21 (centres unmarked) | - | 0.1103 | - | 0.1267
O=C(c1cc(C2CC2)on1)N1CC[C@]2(C[C@H](Oc3cccnc3)CO2)C1 | 11.92 | -0.8629 | 12.75 | 3.732
Cc1cc(C(F)(F)F)nn1CCNC(=O)C(C)n1ccnc1C(C)C (centres unmarked) | -5.314 | 11.96 | 21.9 | -1.831
CCN1N=C(C(=O)N2CCCC(c3nc(C)c(C)s3)C2)CCC1=O (centres unmarked) | 11.33 | -0.6816 | -9.26 | 4.516
CC(C)C1SCC(=O)Nc2c1cnn2C(C)C (centres unmarked) | -10.5 | -0.7703 | -27.61 | 1.515
Cc1cccc(CN2C[C@@H]3CN(C(=O)c4ccnnc4)C[C@@H]3C2=O)c1 | - | -0.6509 | - | 1.954
O=C(O)C(F)(F)F.O=C(O)C(F)(F)F.[H][C@]12CCN(c3ncc(C)cn3)C[C@@]1([H])OCCN(Cc1ccncc1)C2 | 13.41 | - | 1.036 | -
CCC(C)[C@H](N)c1nnc(SCC(=O)Nc2ccc(C)cc2C)o1.Cl (some centres unmarked) | 2.598 and 0.7732 | - | -7.189 | -
CCS(=O)(=O)N1CCc2ccc(NC(=O)Nc3ccc(F)cc3F)cc21 | 47.36 | -5.182 | 4.213 | 2.155
Cc1nc(CNC(C(=O)N2CCOCC2)C(C)C)oc1C (centres unmarked) | -7.005 | -1.544 | -10.42 | 1.261
Cc1n[nH]cc1CNCc1cccc(OCC(F)(F)F)c1 | - | -3.792 | - | -0.9615
O=C(CCc1cccnc1)N1CCC2(CCN(CC3CCCC3)C2)C1 (centres unmarked) | - | 3.936 | - | -0.6369
COCCN(C)C[C@@H]1CCC[C@@H]2CN(c3cc(OC)ncn3)C[C@@H]21 | - | -0.8629 | - | 4.505
N[C@H]1CN(C(=O)c2ccc3[nH]c(=O)c(=O)[nH]c3c2)C[C@@H]1c1ccccc1 | -32.93 | -1.989 | 12.05 | 3.89
COCCn1ccc2ccc(NC(=O)NCc3noc(C)n3)cc21 | 18.56 | -0.3303 | 8.741 | -1.242
CC(C)C(=O)Nc1cc(C(=O)NC2CC(C)(C)NC(C)(C)C2)nn1C | -2.816 | 7.037 | -0.5288 | 6.517
CC(C)n1c(C(=O)N2CCCC2)nc2c1CCN(C)C2 | - | 3.56 | - | -
Cc1cc(C(=O)N2CCc3ncnc(-c4cnn(C)c4)c3CC2)c(C)o1 | -0.2802 | -5.172 | 3.193 | -0.7407
CCCC(=O)Nc1cc(C(=O)NC(C)Cc2ccncc2)ccc1C (centres unmarked) | -0.122 | 2.564 | -4.699 | -0.4914

For reference, 3 entries once more:

{"structure": "CCOCC1CN(C(=O)c2cccn2C)Cc2cnn(CC3CC3)c21", "stereo": "centres unmarked", "B": 0.1103, "D": 0.1267}
{"structure": "Cc1ccc(CN2CCc3[nH]nc(C(=O)N(C)C)c3C2)o1.O=C(O)C(F)(F)F", "A": 19.51, "C": -0.4757}
{"structure": "COc1ccnc(CN(C)C(=O)CSc2nnc(N)s2)c1", "A": 23.55, "B": -1.469, "C": -5.42, "D": 2.056}

Source: ChEMBL document CHEMBL3988442, “University of Dundee, Small-Polar-MMV Screening Library” (2021).